Source: US6623740B1 (Ludwig Institute for Cancer Research, priority 1997, dated 2003)

Assay: general procedure: Fmoc solid-phase peptide synthesis
Settings: whole synthesis

PEPTIDE1{E.A.D.P.T.G.H.S.Y}$$$$V2.0
final purity (method not given): greater than 98%

Strings that start with PEPTIDE1 are HELM notation: dots part the residues, brackets hold end groups and non-standard residues.
